In patent US20200239586A1:
These are yes or no findings as the source states them, for the method shown. Some results given as binding are weak or reduced against the parent protein; the word gives no strength. For part of these data: Sequences can lack the tags named with a protein.

T1: recombinant Fn14-Fc (human) (UniProt Q9NP84)
T1 sequence: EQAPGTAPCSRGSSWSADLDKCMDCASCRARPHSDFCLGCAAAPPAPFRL

T2: phage-displayed hFn14 sub-domain 2 (human)
T2 sequence: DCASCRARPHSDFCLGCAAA

T3: His-tagged recombinant hFn14 mutant R58A (human) (UniProt Q9NP84)
T3 sequence: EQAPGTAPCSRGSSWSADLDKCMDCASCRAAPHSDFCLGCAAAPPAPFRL


Assays:
[1] = molecular target: T1, recombinant Fn14-Fc (human); experiment: ELISA on coated Fn14-Fc, mAb at 1 µg/ml
[2] = molecular target: T2, phage-displayed hFn14 sub-domain 2 (human); experiment: phage ELISA, antibody on plate, 10-fold phage dilutions
[3] = molecular target: T2, phage-displayed hFn14 sub-domain 2 (human); experiment: phage ELISA, antibody on plate, highest phage concentration
[4] = molecular target: T2, phage-displayed hFn14 sub-domain 2 (human); experiment: phage ELISA, mAb coated (Method 1)
[5] = molecular target: T3, His-tagged recombinant hFn14 mutant R58A (human); experiment: ELISA with purified His-tagged hFn14 R58A; x axis 'Log (c)' without unit, µg/ml by the legend
[6] = molecular target: T3, His-tagged recombinant hFn14 mutant R58A (human); experiment: ELISA on coated His-tagged protein
[7] = molecular target: T1, recombinant Fn14-Fc (human); experiment: ELISA, antigen coated at 2 µg/mL, primary antibody 1 µg/mL
[8] = molecular target: T1, recombinant Fn14-Fc (human); experiment: Western blot of Fn14-Fc
[9] = molecular target: T1, recombinant Fn14-Fc (human); experiment: ELISA on coated Fn14-Fc
[10] = molecular target: T1, recombinant Fn14-Fc (human); experiment: ELISA, Fn14-Fc on plate, dilution series of CRCBT-06-001
[11] = molecular target: T1, recombinant Fn14-Fc (human); experiment: Western blot

| binding [1] | binding [2] | binding [3] | binding [4] | binding [5] | binding [6] | binding [7] | binding [8] | binding [9] | binding [10] | binding [11] | Binder |
| --- | --- | --- | --- | --- | --- | --- | --- | --- | --- | --- | --- |
| binds | binds |  | binds |  |  | binds |  |  |  |  | CRCBT-06-007 (antibody, IgG2b, V domains shown) VH: QVKLEESGGVLVQPGGSMKLSCIASGFSFSKYWMNWVRQSPEKGLEWVAEIRVKSNNYATHYAESVKGRFIISRDDSKSSVYLQMNNLRAEDTGIYYCTKSYADYFDYWGQGTTLTVSS VL: DIVMTQSTASLAVSLGQRATISCRASQSVSTSSYSYMHWYQQKPGQPPKVLIKYASNLESGVPARFSGSGSGTDFTLNIHPVEEEDAATYYCQHSWEIPYTFGGGTKLEIKR |
| binds | binds | binds | binds |  |  | binds |  |  |  |  | CRCBT-06-006 (antibody, IgG2a, V domains shown) VH: QVQLQESGGGLVQPGGSMKLSCVASGFTFSYYWMNWVRQSPEQGLEWIAEIRLQSNDYPTHYAESVKGRFTISRDDSKNSVYLQMNNLRPEDTGIYYCACRYADYFDHWGQGTTLTVSS VL: DIVITQSPASLTVSLGQRATISCRASQSVSTSTYSYMHWYQQTPGQPPTVLIKYASSLESGVPTRFSGSGSGTDFTLNIHPVEEEDTATYYCQHSWEIPYTFGGGTKLEIKR |

Further lines, the binder ahead of its results:

| Binder | binding [1] | binding [2] | binding [3] | binding [4] | binding [5] | binding [6] | binding [7] | binding [8] | binding [9] | binding [10] | binding [11] |
| --- | --- | --- | --- | --- | --- | --- | --- | --- | --- | --- | --- |
| CRCBT-06-002 (antibody, IgG1, V domains shown) VH: EVKLQQSGGGLVQPGGSMKLSCVASGFTFSYYWMNWVRQSPEQGLEWIAEIRLQSNDYPTHYAESVKGRFTISRDDSKNSVYLQMNNLRPEDTGIYYCACRYADYFDHWGQGTTLTVSS VL: DTVLTQSPASLVVSLGQRATISCRASQSVSTSDYSYIHWYQQKPGQPPKFLIKYASNRDSGVPARFSGSGSGTDFTLNIHPVEEDDTAIYYCQHSWEIPPTFGAGTKLELQR | binds | binds | binds | binds | binds | binds | binds |  |  |  |  |
| CRCBT-06-001 (antibody, IgG2b, V domains shown) VH: QVQLQQSGGGLVQPGGSMKLSCIASGFTFSSYWMSWVRQSPEKGLEWVAEIRSKSDNYATHYAESVKGKFTISRDDSKSRFFLQMNNLRAEDTGIYYCSSTYADYFHYWGQGTDLTVSS VL: DIVMTQTPASLAVSLGQRATISCRASQSVSTSTYSYMHWYQQKPGQPPKLLIKYASSLESGVPARFSGSGSGTDFTLNIHPVEEDDTATYYCQHSWEIPYTFGGGTKLEIKR |  | binds | binds | binds | binds | binds | binds | binds | binds | binds | binds |
| CRCBT-06-005 (antibody, IgG2b, V domains shown) VH: QVQLQESGGGLVQPGGSMKLSCVASGFTFSYYWMNWVRQSPEQGLEWIAEIRLQSNDYPTHYAESVKGRFTISRDDSKNSVYLQMNNLRPEDTGIYYCACRYADYFDHWGQGTTLTVSS VL: DIVLTQTTASLTVSLGQRATISCRASQSVSTSTYSYMHWYQQTPGQPPTVLIKYASSLESGVPTRFSGSGSGTDFTLNIHPVEEEDTATYYCQHSWEIPYTFGGGTKLEIKR | binds | binds | binds | binds | binds | binds | binds |  |  |  |  |
